The text below walks through data of PMC10638775.

Protein sequences, listed by entry. Tags and fused reporters are not part of them. Residues count along the entry.
UniProt P16092, 22-822: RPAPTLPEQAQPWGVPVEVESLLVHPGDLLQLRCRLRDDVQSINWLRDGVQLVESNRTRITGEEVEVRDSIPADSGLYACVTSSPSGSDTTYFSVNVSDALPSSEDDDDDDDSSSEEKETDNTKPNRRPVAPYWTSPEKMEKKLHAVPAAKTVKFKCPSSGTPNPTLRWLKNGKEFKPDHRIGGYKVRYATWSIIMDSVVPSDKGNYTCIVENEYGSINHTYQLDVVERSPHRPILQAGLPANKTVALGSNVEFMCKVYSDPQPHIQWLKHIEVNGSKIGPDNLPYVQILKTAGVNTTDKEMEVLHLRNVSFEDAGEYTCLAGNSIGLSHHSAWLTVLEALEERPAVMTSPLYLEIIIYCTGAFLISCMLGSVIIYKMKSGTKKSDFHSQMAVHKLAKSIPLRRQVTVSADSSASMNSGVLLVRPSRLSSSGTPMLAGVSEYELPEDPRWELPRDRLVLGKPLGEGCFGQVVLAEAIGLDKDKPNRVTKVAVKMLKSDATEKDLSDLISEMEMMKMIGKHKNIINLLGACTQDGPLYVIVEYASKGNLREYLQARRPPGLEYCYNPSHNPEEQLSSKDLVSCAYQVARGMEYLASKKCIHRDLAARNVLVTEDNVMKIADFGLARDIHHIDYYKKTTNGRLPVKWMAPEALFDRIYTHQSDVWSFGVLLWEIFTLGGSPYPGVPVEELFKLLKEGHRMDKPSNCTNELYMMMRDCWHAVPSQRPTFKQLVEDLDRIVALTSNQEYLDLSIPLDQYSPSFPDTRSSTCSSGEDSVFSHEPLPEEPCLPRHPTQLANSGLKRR

The target in the data set is FGFR1 on NIH3T3 cells (mouse (NIH3T3 fibroblasts)) (UniProt P16092). Put plainly: flow cytometry. As to conditions: increased binding fraction vs binder, flow cytometry: PBS, 1% BSA, 0.1% sodium azide, room temperature, protein on the cell surface, folded or branched DNA. On the technique in general: In flow cytometry, cells or beads pass a laser one at a time.

For at least one entry, the source does not settle the construct or the ends of the probe. Results from cells or extracts need not show a direct contact.

On to “GCCGCGTCTTTATGGCTGGGGATGGTGTGGGTTGCGGCGCCGCGTCTTTATGGCTGGGGATGGTGTGGGTTGCGGC [FAM-FGFR-agonist]”, for which the binding result was “binds”.
